From patent US20140005417A1, “WATER-INSOLUBLE COLORING COMPOUND, INK, RESIST COMPOSITION FOR COLOR FILTER, AND THERMAL TRANSFER RECORDING SHEET” (CANON KABUSHIKI KAISHA, priority 2011, published 2014)
Some compounds share one wording; it may come from a single statement.

Assays:
[1] = Color tone evaluation of ink image samples (chromaticity L*a*b*); settings: ink (17 parts compound in 120 parts styrene) bar-coated on paper; interpolated to L* of 60
[2] = Saturation evaluation of ink image samples; settings: ink bar-coated on paper (Bar No. 10); for c* with bar coater No. 10: c* = {(a*)^2+(b*)^2}^1/2

Structure (SMILES) | a* at L* = 60 [1] | b* at L* = 60 [1] | saturation evaluation with bar coater No. 10 [2] | c* with bar coater No. 10 [2]
CCN(CC)c1ccc2c(c1)Oc1cc(N(CC)CC)ccc1C21OC(=O)c2ccccc21 [(1), reference compound] | 86.2 | −34.3 | A (c* is 80 or more (the saturation is excellent)) | 88.9
Nc1c(Oc2ccccc2)cc(O)c2c1C(=O)c1ccccc1C2=O [(2), reference compound] | 66.1 | −1.7 | B (c* is 70 or more and less than 80 (the saturation is good)) | 76.9
Cc1ccc(/N=N/c2c(O)c(C(=O)O)cc3ccccc23)c(S(=O)(=O)O)c1 [(3), reference compound] | 64.0 | −9.6 | C (c* is less than 70 (the saturation is poor)) | 67.2
CC(=O)Nc1c(C)c(N=c2ccc3c(-c4ccccc4S(=O)(=O)O)c4ccc(Nc5c(C)c(NC(C)=O)c(C)c(NC(C)=O)c5C)cc4oc-3c2)c(C)c(NC(C)=O)c1C [(11)] | 80.1 | −16.3 | A (c* is 80 or more (the saturation is excellent)) | 84.5
CCOC(=O)c1ccccc1C(=O)Nc1c(C)cc(C)c(N=c2ccc3c(-c4ccccc4S(=O)(=O)O)c4ccc(Nc5c(C)cc(C)c(NC(=O)c6ccccc6C(=O)OCC)c5C)cc4oc-3c2)c1C [(12)] | 80.8 | −15.8 | A (c* is 80 or more (the saturation is excellent)) | 83.9
CC(=O)Nc1c(C)cc(C)c(N=c2ccc3c(-c4ccccc4S(=O)(=O)O)c4ccc(Nc5c(C)c(NC(C)=O)c(C)c(NC(C)=O)c5C)cc4oc-3c2)c1C [(13)] | 80.2 | −16.0 | A (c* is 80 or more (the saturation is excellent)) | 84.0
CCc1ccc(NC(C)=O)c(CC)c1N=c1ccc2c(-c3ccccc3S(=O)(=O)O)c3ccc(Nc4c(CC)ccc(NC(C)=O)c4CC)cc3oc-2c1 [(14)] | 79.9 | −15.7 | A (c* is 80 or more (the saturation is excellent)) | 83.5
CCc1ccc(NC(C)=O)c(CC)c1Nc1ccc2c(-c3ccccc3S(=O)(=O)O)c3ccc(=Nc4c(C)ccc(NC(C)=O)c4C)cc-3oc2c1 [(15)] | 80.5 | −15.7 | A (c* is 80 or more (the saturation is excellent)) | 84.4
CC(=O)Nc1ccc(C)c(N=c2ccc3c(-c4ccccc4S(=O)(=O)O)c4ccc(Nc5c(C(C)C)ccc(NC(C)=O)c5C(C)C)cc4oc-3c2)c1C [(16)] | 79.2 | −16.4 | A (c* is 80 or more (the saturation is excellent)) | 85.2
CCOc1cc(C)c(N=c2ccc3c(-c4ccccc4S(=O)(=O)O)c4ccc(Nc5c(C)cc(OCC)c(NC(C)=O)c5C)cc4oc-3c2)c(C)c1NC(C)=O [(18)] | 81.2 | −15.5 | A (c* is 80 or more (the saturation is excellent)) | 84.6
C=C(C)C(=O)Nc1c(C)cc(C)c(N=c2ccc3c(-c4ccccc4S(=O)(=O)O)c4ccc(Nc5c(C)cc(C)c(NC(=O)C(=C)C)c5C)cc4oc-3c2)c1C [(21)] | 78.6 | −16.0 | A (c* is 80 or more (the saturation is excellent)) | 82.1
Cc1cc(C)c(NC(=O)c2cccnc2)c(C)c1N=c1ccc2c(-c3ccccc3S(=O)(=O)O)c3ccc(Nc4c(C)cc(C)c(NC(=O)c5cccnc5)c4C)cc3oc-2c1 [(22)] | 77.9 | −16.5 | A (c* is 80 or more (the saturation is excellent)) | 81.7
CCCCCCCCCCCCCCCCCC(=O)Nc1c(C)cc(C)c(N=c2ccc3c(-c4ccccc4S(=O)(=O)O)c4ccc(Nc5c(C)cc(C)c(NC(=O)CCCCCCCCCCCCCCCCC)c5C)cc4oc-3c2)c1C [(23)] | 79.6 | −17.2 | A (c* is 80 or more (the saturation is excellent)) | 80.9
CC(=O)Nc1c(C)cc(C)c(N=c2ccc3c(-c4ccccc4S(=O)(=O)O)c4ccc(Nc5c(C)cc(C)c(NC(C)=O)c5C)cc4oc-3c2)c1C [Compound (5)] | 80.8 | −16.2 | A (c* is 80 or more (the saturation is excellent)) | 85.2
CCC(=O)Nc1c(C)cc(C)c(N=c2ccc3c(-c4ccccc4S(=O)(=O)O)c4ccc(Nc5c(C)cc(C)c(NC(=O)CC)c5C)cc4oc-3c2)c1C [Compound (6)] | 80.5 | −16.0 | A (c* is 80 or more (the saturation is excellent)) | 85.6
CCCC(=O)Nc1c(C)cc(C)c(N=c2ccc3c(-c4ccccc4S(=O)(=O)O)c4ccc(Nc5c(C)cc(C)c(NC(=O)CCC)c5C)cc4oc-3c2)c1C [Compound (7)] | 81.4 | −16.3 | A (c* is 80 or more (the saturation is excellent)) | 85.1
Cc1cc(C)c(NC(=O)C(C)C)c(C)c1N=c1ccc2c(-c3ccccc3S(=O)(=O)O)c3ccc(Nc4c(C)cc(C)c(NC(=O)C(C)C)c4C)cc3oc-2c1 [Compound (8)] | 81.6 | −15.8 | A (c* is 80 or more (the saturation is excellent)) | 83.5
Cc1cc(C)c(NC(=O)c2ccccc2)c(C)c1N=c1ccc2c(-c3ccccc3S(=O)(=O)O)c3ccc(Nc4c(C)cc(C)c(NC(=O)c5ccccc5)c4C)cc3oc-2c1 [Compound (10)] | 78.9 | −15.9 | A (c* is 80 or more (the saturation is excellent)) | 82.5
